Test results as given in patent US20240398788A1, “METHODS OF TREATING CANCER USING HSF1 PATHWAY INHIBITORS” (Institute of Cancer Research, priority 2021, published 2024).

Columns and labels:
[1] = system: ES-2 ovarian cancer xenograft (ARID1A wildtype); details: ES-2 model, mice, oral dosing
Excerpt: (§1) Once the tumours were established, mice were randomised into vehicle control and treatment groups. Mice in both the vehicle control and treatment groups that were removed during the course of the study due to spontaneous or treatment derived tumour regression, tumour growth approaching license limits, tumour ulceration or loss of condition were excluded from the final analysis of the mean tumour volume and standard error of the mean and up to the point they were removed from the study. The number of mice undergoing complete tumour regression in the treatment group is noted where applicable.
(§2) Two groups of 12 female NCr nude mice (3 groups of 10 for SK-OV-3) were injected with 3-5×10^6 cells of one of the above cancer cell lines, subcutaneously. […] Body weights were taken daily and animals were monitored for signs of toxicity. To evaluate drug levels the animals were euthanised in batches of 3 to 4 at 2, 6 and 24 hours after the last dose and terminal plasma and tumour samples collected for PK analysis.

[2] = system: RMG1 ovarian cancer xenograft (ARID1A wildtype); details: RMG1 model, mice, oral dosing
Excerpt: as §1, §2

[3] = system: OVCAR-5 ovarian cancer xenograft (ARID1A wildtype); details: OVCAR-5 model, mice, oral dosing
Excerpt: as §1, §2

CCN1CCN(Cc2ccc3cc(C(=O)Nc4cc(NC(=O)c5ccc6c(c5)OCCO6)ccc4F)ccc3n2)CC1 [Compound A, N-(5-(2,3-Dihydrobenzo[b][1,4]dioxine-6-carboxamido)-2-fluorophenyl)-2-((4-ethylpiperazin-1-yl)methyl)quinoline-6-carboxamide] was tested, and the “Plasma Cmax” value [1] was “within the range seen in successful efficacy studies”, the “Plasma Cmax” value [2] was “less than half the lowest level seen in successful efficacy studies” and the “Plasma Cmax” value [3] was “within the range seen in successful efficacy studies”.
